Results are given in words; binding and its absence hold for the method and conditions named. In cells and extracts the contact can be indirect. Some entries that bind do so weakly or less than the wild type.

Sequences of proteins named here, by UniProt entry; tags and fusion partners are left off.
UniProt Q15717: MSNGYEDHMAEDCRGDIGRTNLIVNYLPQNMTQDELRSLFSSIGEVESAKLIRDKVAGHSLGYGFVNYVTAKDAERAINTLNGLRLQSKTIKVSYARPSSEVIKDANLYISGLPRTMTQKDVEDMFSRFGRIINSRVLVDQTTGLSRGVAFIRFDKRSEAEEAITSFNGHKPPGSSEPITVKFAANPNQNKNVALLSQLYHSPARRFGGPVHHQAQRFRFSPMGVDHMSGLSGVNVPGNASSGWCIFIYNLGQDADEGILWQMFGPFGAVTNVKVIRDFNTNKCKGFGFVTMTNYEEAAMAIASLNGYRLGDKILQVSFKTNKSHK
UniProt Q9Y297: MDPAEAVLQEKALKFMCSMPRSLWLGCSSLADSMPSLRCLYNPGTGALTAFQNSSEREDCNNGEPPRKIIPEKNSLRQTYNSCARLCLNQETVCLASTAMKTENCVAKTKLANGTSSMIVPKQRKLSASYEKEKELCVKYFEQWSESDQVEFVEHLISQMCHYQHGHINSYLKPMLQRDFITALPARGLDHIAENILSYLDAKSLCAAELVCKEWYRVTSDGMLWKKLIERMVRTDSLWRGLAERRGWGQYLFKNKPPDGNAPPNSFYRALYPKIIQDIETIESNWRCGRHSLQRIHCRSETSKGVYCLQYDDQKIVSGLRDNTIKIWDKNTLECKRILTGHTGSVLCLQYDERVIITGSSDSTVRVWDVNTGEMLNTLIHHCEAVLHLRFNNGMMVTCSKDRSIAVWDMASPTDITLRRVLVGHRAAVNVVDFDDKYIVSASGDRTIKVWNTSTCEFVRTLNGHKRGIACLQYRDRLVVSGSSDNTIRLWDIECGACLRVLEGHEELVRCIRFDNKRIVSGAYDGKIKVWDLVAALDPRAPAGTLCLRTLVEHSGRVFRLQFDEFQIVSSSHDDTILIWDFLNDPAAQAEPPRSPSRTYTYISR

In the assay the target is human antigen R (HuR) (human (endogenous in HCT116)) (UniProt Q15717). The assay can be described thus: co-IP; HCT116 cells stably transduced with control or GMDS-AS1 shRNA, transfected with MYC-β-TrCP plasmid for 48 h; lysates in co-IP buffer (0.5% Triton X-100, 20 mM HEPES, 150 mM NaCl, 12.5 mM glycerophosphate, 1.5 mM MgCl2, 2 mM EGTA); IP with control IgG, anti-HuR or anti-β-TrCP antibody overnight at 4 °C, protein A/G magnetic beads; immunoblot with anti-HuR and anti-β-TrCP. In general terms: Immunoblotting shows a protein as a band on a membrane.

For the substance “MYC-β-TrCP (beta-transducin repeat-containing protein) (from UniProt Q9Y297 1-605)”, the binding entry was “binds”.

The values above are taken from publication PMC9970971.
